Source: PubChem BioAssay AID1259425 (University of Nebraska Medical Center, 2018)
In all, the deposit lists about 14,000 reagents; this is a random part of them. Reagent sequences are not shown. The record does not give: the time to read-out.

Test: 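Compare each knockdown with KSR1 silencing using changes in marker transcripts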 (primary screen)
System: HCT116 human colon cancer cells
Reagent: siRNA pool against human genes, 50 nM siRNA
Measurement: 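mRNA of six signature genes measured together by branched-DNA assay after 50 nM siRNA pool, blank removed, divided by geometric mean of two housekeeping genes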
Reading the numbers: BNIP3L mRNA: higher = more BNIP3L transcript after knockdown; NDRG1 mRNA: higher = more NDRG1 transcript after knockdown; BNIP3 mRNA: higher = more BNIP3 transcript after knockdown; ALDOC mRNA: higher = more ALDOC transcript after knockdown; ACSL5 mRNA: higher = more ACSL5 transcript after knockdown

no.	target	BNIP3L mRNA, set 1	NDRG1 mRNA, set 1	BNIP3 mRNA, set 1	ALDOC mRNA, set 1	ACSL5 mRNA, set 1
1	TEX12	0.266	0.193	0.687	0.125	0.205
2	METTL17	0.0936	0.118	0.335	0.0477	0.0962
3	PEAK1	0.196	0.299	0.442	0.0331	0.373
4	GPR101	0.145	0.0699	0.23	0.0146	0.168
5	SPHAR (retired record)	0.109	0.18	0.248	0.0365	0.235
6	CPNE6	0.149	0.296	0.334	0.0561	0.131
7	GPD1L	0.0813	0.711	0.41	0.0286	0.238
8	DXO	0.116	0.0497	0.268	0.00857	0.0627
9	RSRC1	0.133	0.16	0.339	0.0519	0.284
10	GPX4	0.196	0.0632	0.28	0.0226	0.0575
11	CCNA1	0.11	0.142	0.243	0.0301	0.171
12	RPE65	-0.0146	-0.028	-0.0204	-0.0111	0.306
13	SLC7A8	0.142	0.17	0.335	0.0143	0.0546
14	GLI2	0.106	0.307	0.359	0.0167	0.374
15	ZNF821	0.0588	0.165	0.276	0.0213	0.111
16	UNC80	0.275	0.211	0.422	0.0929	0.218
17	RILP	0.468	0.96	0.407	0.142	0.497
18	GFI1	0.137	2.4	0.578	0.0229	0.697
19	MINK1	0.128	0.24	0.242	0.0274	0.251
20	RBMX	0.0838	0.0943	0.276	0.0183	0.139

Part of the list above, reformatted.
target,"BNIP3L mRNA, set 1","NDRG1 mRNA, set 1","BNIP3 mRNA, set 1","ALDOC mRNA, set 1","ACSL5 mRNA, set 1"
CCNA1,0.11,0.142,0.243,0.0301,0.171
RPE65,-0.0146,-0.028,-0.0204,-0.0111,0.306
